No constants are given. Whether binding was seen depends on the method and setting.
Tests used:
[1] = target: human SIRPα-V8-his protein (human) (UniProt P78324); assay: indirect ELISA on coated human SIRPα-V8-his, OD(450-630)
[2] = target: human SIRPα-isoform 2-his protein (human); assay: indirect ELISA on coated human SIRPα-isoform 2-his, OD(450-630)
[3] = target: full length human SIRPγ endogenously expressed on Jurkat cells (human) (UniProt Q9P1W8); assay: cell based binding FACS on Jurkat cells (endogenous human SIRPγ), MFI
[4] = target: full length human SIRPγ endogenously expressed on Jurkat cells (human) (UniProt Q9P1W8); assay: cell based binding FACS on Jurkat cells (FIG. 6)

Amino acid sequences for entries named in this document (tags omitted). A change or cut given only in a name is not applied to a line headed by its entry. Residues count along the entry.
UniProt P78324: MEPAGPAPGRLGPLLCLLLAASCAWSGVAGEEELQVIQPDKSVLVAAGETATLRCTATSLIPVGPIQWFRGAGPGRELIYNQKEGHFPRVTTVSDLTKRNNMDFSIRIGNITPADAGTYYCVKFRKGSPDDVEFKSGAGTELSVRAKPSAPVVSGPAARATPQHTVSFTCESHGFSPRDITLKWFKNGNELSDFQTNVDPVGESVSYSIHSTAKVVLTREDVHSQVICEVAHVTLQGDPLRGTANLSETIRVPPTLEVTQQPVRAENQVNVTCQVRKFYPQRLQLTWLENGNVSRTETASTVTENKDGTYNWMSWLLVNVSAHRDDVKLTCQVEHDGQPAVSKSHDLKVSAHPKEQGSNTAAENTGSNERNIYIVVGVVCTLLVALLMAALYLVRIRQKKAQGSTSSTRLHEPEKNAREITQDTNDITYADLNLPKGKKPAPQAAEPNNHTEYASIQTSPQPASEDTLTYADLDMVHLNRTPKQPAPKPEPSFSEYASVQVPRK
UniProt Q9P1W8, residues 29-387: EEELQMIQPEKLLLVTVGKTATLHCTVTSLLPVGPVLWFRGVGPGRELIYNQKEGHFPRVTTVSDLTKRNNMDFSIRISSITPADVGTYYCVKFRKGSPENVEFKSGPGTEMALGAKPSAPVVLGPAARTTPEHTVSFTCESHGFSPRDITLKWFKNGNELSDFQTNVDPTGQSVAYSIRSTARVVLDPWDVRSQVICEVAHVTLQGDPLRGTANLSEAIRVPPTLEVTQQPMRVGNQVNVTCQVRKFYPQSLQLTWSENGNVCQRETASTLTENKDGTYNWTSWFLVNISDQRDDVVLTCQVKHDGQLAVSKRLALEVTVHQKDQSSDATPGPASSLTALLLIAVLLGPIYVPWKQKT

B1: BI-765063 (antibody, human IgG4 S228P, kappa, V domains shown)
VH: EVQLVQSGAEVKKPGESLRISCKASGYSFTSYWVHWVRQMPGKGLEWMGNIDPSDSDTHYSPSFQGHVTLSVDKSISTAYLQLSSLKASDTAMYYCVRGGTGTLAYFAYWGQGTLVTVSS
VL: DVVMTQSPLSLPVTLGQPASISCRSSQSLVHSYGNTYLYWFQQRPGQSPRLLIYRVSNRFSGVPDRFSGSGSGTDFTLKISRVEAEDVGVYYCFQGTHVPYTFGGGTKVEIKR
Question: Which binding [1] does the source give for B1 here?
Answer: The binding was “no binding (tested: ~67 nM)”.

Question: What about the binding [2] of the same binder?
Answer: Its binding is “no binding (tested: ~67 nM)”.

B2: E1D5E1F1 (antibody, V domains shown)
VH: QVQLVQSGAEVKKPGASVKVSCKASGYTFTSFAMQWVRRAPGQRLEWMGWIIAGNGDTKYSQNFQDRVTLTRDTSANTAYMDLSGLRSEDTAVYYCARGSGFSGYGYFDKWGQGTLVTVSS
VL: DIQMTQSPSSLSASVGDRVTITCRASHSISSYLNWYQQKPGKVPKLLIYASSSLQSGVPSRFSGNGSGTDFTLIISSLQPEDFATYYCQQSHSIPLTFGGGTKVEIK
Question: What does the source list for B2?
Answer: binding [3]: no binding (tested: ~67 nM); binding [4]: no binding (tested: starting from 10 µg/mL)

B3: E1F1B1C3 (antibody, V domains shown)
VH: QVQLVQSGAEVKKPGASVKVSCKASGYTFTSNAMHWVRQVPGQGLEWMGWIKAGNGEIKYSQKFQGRVTITRDTSATTAYMELSSLRSEDTAVYYCARGDYYYYYMDVWGKGTTVTVSS
VL: DIQVTQSPSSLSASVGDRVTITCRASQSISDFLNWYQQKPGKAPKLLIHAASSLQNGVPSRFSGSGSGTDFSLTINSLQPEDFATYYCQQSYSTPLSFGGGTKVEIK
Question: How did the binding [3] turn out when B3 was run?
Answer: Its binding is “no binding (tested: ~67 nM)”.

Question: What about the binding [4] of the same binder?
Answer: The binding was “no binding (tested: starting from 10 µg/mL)”.

B4: E1H10B7C7 (antibody, V domains shown)
VH: QVQLVQSGAEVKKPGASVKVSCKASGYTFTSYAMQWVRQAPGQRLEWMGWIIAGNGDTKYSQNFQDRVTLTRDTSANTAYMDLSGLRSEDTAVYYCARGSGFSGYGYFDKWGQGTLVTVSS
VL: DIQMTQSPSSLSASVGDRVTITCRASHSISSYLNWYQQKPGKVPKLLIYASSSLQSGVPSRFSGNGSGTDFTLIISSLQPEDFATYYCQQSHSIPLTFGGGTKVEIK
Question: Which binding [4] does the source give for B4 here?
Answer: The binding was “no binding (tested: starting from 10 µg/mL)”.

Source: patent publication US20250250355A1
